For the data set, the system named is Hs683. Nature of the data set: MTT test, overall cell growth. The class given is cell-based, human. Conditions: cell line Hs683. As to the method:
In order to characterize the in vitro activities of the compounds according to the invention, MTT tests were carried out. The MTT test, which is a well-known test in the art, is an indirect technique that rapidly measures, i.e. within 5 days, the effect of a given product on the overall cell growth. This test measures the number of metabolically active living cells that are able to transform the MTT product (3-(4,5-dimethylthiazol-2-yl)-2,5 diphenyl tetrazolium bromide), having a yellowish color, to the blue product formazan dye by mitochondrial reduction. The amount of formazan obtained at the end of the experiment is measured with a spectrophotometer and is directly proportional to the number of living cells. Determination of the optical density enables a quantitative measurement of the effect of the investigated compounds as compared to the control condition (untreated cells) and to compare it to other reference compound. […]
After 72 hours of incubation at 37° C. with the compound (experimental conditions) or without the compound (control condition), the medium was replaced by 100 μl MTT at the concentration of 1 mg/ml dissolved in RPMI. […] The micro wells were shaken for 5 minutes and read on a spectrophotometer at the wavelengths of 570 nm corresponding to the maximum formazan absorbance wavelength, and of 630 nm, which is the background noise wavelength. […]

Turning to `CC1CC2(NC(=O)CS2)C2(O)OC3CC4(C=O)C(CCC5C4CCC4(C)C(C6=CC(=O)OC6)CCC54O)CC3OC2O1` (centres unmarked) [2″oxo-voruscharin, 2″ oxo-voruscharin], the “IC50 value lower than the IC50 value of compound B” value came to 1000 fold.

With `C[C@@H]1CC2(N=CCS2)C2(O)O[C@@H]3C[C@]4(C=O)C5CC[C@]6(C)[C@@H](C7=CC(=O)OC7)CC[C@]6(O)[C@@H]5CC[C@H]4C[C@H]3O[C@@H]2O1` (some centres unmarked) [uscharin], the “IC50 value lower than the IC50 value of compound B” value was 1000 fold.
